The other results are listed elsewhere or left out. Hit calls seldom repeat between salt and free forms of one compound.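 In K562 cells expressing nanoluciferase-fused kinases, luminescence was recorded at 4 h intervals between 2 and 18 h, normalized as percent of control with DMSO at 100% and a positive control at 0%. A significant (2 sigma) signal drop marks a time point as decreased. The authors' rule for a hit is not shown and takes in more than the number of time points.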
Tests used:
Assay in all cases: number of time points (of 5) at which kinase-Nluc abundance scored as decreased, DMSO-normalised (count); higher = more persistent destabilization
[1] = compound: COc1ccc(-c2cc3nccn3c(Nc3ncccc3C(N)=O)n2)cc1OC [BAY 61-3606 (dihydrochloride)]; details: 2.5 µM; K562; 2-18 h
[2] = compound: COc1ccc(CNC(=O)Nc2ncc([N+](=O)[O-])s2)cc1; details: 2.5 µM; K562; 2-18 h
[3] = compound: COc1nccc(-c2c(-c3ccc(F)cc3)ncn2C2CCNCC2)n1; details: 10 µM; K562; 2-18 h
HDACs/mTOR Inhibitor 1 = compound: C[C@@H]1CN(C(=O)Nc2ccc(-c3nc(N4CCOCC4)c4cnn(CCCCCCC(=O)NO)c4n3)cc2)CCO1 [HDACs/mTOR Inhibitor 1]; details: 10 µM; K562; 2-18 h
Quercitrin = compound: C[C@@H]1O[C@@H](Oc2c(-c3ccc(O)c(O)c3)oc3cc(O)cc(O)c3c2=O)[C@H](O)[C@H](O)[C@H]1O [Quercitrin]; details: 10 µM; K562; 2-18 h
[4] = compound: C[C@@]1(C(=O)Nc2ccc(F)nc2)CCCN1c1nc(Nc2cc(C3CC3)n[nH]2)c2cccn2n1; details: 10 µM; K562; 2-18 h
Fenebrutinib = compound: C[C@H]1CN(C2COC2)CCN1c1ccc(Nc2cc(-c3ccnc(N4CCn5c(cc6c5CC(C)(C)C6)C4=O)c3CO)cn(C)c2=O)nc1 [Fenebrutinib]; details: 10 µM; K562; 2-18 h
[5] = compound: COc1cccc(C2=NN(c3ccc(S(N)(=O)=O)cc3)C(c3ccc(Br)cc3)C2)c1; details: 10 µM; K562; 2-18 h
[6] = compound: C[C@@H]1C[C@H](N)C[C@H](c2ccncc2NC(=O)c2ccc(F)c(-c3c(F)cccc3F)n2)C1 [PIM-447 (dihydrochloride)]; details: 10 µM; K562; 2-18 h
(-)-Zuonin A = compound: C[C@@H]1[C@H](C)[C@H](c2ccc3c(c2)OCO3)O[C@H]1c1ccc2c(c1)OCO2 [(-)-Zuonin A]; details: 10 µM; K562; 2-18 h

By UniProt entry, the sequences of proteins in these tests, tags left out. Where a name states a change or a piece, a line headed by the entry shows the natural chain unless it says otherwise.
UniProt P15056, whole entry, looked up: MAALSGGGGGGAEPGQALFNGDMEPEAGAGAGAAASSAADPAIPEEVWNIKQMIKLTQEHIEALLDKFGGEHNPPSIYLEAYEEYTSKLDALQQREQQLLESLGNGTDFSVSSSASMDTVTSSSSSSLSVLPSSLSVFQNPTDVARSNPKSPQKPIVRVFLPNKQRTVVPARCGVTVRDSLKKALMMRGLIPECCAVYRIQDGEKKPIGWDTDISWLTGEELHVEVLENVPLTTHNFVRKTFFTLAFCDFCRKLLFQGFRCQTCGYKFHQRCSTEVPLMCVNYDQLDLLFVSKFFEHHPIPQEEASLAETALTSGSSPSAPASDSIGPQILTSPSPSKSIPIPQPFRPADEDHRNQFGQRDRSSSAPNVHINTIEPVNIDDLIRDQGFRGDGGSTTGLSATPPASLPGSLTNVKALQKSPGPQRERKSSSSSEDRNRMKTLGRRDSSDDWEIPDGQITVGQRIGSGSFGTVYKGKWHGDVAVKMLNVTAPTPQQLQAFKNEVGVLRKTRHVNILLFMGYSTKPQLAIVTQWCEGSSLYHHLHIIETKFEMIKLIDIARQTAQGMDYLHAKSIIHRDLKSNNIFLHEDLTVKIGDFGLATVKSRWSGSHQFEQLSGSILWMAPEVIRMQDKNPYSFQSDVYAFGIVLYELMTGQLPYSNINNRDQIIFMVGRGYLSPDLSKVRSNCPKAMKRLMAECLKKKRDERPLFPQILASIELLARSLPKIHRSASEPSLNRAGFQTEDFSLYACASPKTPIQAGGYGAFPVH
UniProt Q15208: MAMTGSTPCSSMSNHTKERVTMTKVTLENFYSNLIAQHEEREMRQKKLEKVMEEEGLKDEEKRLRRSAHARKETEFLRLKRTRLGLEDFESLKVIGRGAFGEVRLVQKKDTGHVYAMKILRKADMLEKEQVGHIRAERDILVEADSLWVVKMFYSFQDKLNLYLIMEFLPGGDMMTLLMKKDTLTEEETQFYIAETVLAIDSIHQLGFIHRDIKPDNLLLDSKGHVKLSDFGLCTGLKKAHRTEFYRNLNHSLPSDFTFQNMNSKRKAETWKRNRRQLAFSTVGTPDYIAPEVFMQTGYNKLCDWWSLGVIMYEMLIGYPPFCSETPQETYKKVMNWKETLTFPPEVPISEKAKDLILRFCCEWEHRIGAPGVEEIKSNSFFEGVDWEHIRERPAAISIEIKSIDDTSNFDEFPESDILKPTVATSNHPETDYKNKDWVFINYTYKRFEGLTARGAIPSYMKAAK
UniProt P49840: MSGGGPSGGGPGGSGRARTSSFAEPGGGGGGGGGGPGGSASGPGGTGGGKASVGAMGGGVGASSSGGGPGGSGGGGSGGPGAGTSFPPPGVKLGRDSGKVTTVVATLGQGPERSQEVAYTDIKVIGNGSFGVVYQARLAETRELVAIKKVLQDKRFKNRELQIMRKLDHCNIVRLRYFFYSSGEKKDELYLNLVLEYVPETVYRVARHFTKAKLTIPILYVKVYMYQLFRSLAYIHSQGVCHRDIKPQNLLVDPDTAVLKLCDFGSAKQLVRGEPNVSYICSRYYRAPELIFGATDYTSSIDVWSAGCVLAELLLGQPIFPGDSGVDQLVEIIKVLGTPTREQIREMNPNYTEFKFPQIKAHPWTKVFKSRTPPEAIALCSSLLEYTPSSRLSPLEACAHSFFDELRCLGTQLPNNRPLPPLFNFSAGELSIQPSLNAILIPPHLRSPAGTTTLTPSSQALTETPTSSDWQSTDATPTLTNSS
UniProt Q16620, whole entry, looked up: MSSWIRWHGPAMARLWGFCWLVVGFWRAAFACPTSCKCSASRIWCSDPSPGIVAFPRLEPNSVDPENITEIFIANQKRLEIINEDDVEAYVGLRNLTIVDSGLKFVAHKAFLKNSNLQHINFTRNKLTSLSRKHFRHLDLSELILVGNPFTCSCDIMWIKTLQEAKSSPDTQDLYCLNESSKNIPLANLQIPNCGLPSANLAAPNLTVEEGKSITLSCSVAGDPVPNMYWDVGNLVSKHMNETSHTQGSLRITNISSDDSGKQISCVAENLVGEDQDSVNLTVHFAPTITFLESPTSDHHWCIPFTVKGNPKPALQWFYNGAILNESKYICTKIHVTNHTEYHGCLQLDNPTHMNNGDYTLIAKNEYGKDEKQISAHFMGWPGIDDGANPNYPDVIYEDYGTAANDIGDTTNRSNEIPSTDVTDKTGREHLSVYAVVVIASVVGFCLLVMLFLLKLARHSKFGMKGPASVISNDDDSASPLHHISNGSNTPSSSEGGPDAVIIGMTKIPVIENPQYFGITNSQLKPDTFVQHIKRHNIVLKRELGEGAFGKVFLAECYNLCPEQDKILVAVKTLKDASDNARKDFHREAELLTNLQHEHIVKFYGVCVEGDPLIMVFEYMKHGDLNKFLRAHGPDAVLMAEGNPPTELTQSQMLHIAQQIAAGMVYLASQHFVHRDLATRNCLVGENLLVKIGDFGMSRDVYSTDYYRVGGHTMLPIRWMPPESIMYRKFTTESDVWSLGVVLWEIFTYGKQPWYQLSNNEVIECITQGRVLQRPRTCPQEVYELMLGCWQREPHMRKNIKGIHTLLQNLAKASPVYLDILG
UniProt P51813: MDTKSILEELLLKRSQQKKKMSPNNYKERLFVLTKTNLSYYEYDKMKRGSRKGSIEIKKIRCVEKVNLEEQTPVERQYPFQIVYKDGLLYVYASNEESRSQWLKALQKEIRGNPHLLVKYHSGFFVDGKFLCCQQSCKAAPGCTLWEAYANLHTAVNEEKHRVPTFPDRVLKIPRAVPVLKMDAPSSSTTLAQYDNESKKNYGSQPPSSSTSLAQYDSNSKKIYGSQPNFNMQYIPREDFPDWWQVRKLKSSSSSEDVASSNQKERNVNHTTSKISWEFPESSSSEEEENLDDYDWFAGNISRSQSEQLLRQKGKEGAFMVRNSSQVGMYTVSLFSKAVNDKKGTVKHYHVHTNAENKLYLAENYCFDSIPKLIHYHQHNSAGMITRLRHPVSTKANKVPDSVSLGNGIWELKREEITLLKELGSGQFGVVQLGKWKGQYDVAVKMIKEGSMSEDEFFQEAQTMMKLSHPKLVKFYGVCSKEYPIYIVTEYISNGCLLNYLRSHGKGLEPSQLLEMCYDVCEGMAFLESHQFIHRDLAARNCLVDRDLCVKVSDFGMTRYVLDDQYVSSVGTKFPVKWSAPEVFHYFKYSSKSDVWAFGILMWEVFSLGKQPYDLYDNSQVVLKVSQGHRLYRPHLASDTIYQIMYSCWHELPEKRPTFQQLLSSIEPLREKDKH
UniProt O96017, whole entry: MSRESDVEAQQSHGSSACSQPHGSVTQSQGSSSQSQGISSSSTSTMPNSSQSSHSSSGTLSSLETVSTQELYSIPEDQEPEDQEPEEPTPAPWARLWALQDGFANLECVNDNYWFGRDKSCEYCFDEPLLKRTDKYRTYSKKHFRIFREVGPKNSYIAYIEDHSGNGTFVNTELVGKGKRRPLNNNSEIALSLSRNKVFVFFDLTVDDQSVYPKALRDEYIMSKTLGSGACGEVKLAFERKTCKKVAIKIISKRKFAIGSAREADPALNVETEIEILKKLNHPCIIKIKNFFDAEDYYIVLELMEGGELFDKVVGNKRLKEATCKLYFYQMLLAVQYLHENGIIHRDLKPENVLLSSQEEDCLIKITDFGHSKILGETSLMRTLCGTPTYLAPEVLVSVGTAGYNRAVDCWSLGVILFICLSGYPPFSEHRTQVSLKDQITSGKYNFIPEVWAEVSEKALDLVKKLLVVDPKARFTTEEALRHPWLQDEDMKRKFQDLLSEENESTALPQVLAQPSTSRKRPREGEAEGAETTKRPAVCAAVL
UniProt Q00526: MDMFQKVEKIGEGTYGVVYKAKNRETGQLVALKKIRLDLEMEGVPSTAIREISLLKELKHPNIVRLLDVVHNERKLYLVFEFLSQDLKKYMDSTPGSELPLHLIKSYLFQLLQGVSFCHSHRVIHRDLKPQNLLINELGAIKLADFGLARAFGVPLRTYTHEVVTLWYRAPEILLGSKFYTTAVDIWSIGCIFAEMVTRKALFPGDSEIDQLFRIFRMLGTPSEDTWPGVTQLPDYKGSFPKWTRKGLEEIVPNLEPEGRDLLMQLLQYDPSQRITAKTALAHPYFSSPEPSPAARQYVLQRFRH
UniProt P53671: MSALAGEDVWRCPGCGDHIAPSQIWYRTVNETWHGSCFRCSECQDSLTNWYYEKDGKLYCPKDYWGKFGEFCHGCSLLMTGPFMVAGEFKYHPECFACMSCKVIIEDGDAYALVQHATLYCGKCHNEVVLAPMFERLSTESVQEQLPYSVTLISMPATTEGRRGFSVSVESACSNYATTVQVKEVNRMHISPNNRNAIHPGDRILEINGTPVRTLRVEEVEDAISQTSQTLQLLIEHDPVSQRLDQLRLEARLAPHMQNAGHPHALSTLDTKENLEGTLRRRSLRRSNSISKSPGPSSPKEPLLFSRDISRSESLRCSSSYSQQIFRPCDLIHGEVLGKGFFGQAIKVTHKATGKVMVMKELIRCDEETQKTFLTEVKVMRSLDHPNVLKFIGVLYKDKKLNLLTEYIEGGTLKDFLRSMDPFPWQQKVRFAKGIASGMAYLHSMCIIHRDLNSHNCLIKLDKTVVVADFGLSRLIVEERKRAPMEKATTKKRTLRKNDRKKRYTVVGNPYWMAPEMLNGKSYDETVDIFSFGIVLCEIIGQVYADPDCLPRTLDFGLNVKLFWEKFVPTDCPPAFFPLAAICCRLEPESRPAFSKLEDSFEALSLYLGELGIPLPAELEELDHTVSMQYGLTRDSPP
UniProt O15530: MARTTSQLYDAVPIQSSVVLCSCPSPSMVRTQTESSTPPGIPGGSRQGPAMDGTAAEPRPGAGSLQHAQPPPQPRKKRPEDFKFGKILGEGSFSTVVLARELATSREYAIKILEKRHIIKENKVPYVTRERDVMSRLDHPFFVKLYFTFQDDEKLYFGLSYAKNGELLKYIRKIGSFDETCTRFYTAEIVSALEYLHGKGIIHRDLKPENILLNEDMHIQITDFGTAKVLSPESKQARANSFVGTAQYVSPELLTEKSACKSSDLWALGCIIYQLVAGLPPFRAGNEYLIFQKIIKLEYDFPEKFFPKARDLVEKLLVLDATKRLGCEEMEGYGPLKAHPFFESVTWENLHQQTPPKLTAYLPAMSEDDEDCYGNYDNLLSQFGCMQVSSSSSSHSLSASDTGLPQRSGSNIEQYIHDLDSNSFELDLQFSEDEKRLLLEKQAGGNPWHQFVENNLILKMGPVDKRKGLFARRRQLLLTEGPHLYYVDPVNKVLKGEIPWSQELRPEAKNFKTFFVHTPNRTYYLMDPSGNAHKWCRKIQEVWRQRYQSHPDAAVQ
UniProt Q9Y6E0: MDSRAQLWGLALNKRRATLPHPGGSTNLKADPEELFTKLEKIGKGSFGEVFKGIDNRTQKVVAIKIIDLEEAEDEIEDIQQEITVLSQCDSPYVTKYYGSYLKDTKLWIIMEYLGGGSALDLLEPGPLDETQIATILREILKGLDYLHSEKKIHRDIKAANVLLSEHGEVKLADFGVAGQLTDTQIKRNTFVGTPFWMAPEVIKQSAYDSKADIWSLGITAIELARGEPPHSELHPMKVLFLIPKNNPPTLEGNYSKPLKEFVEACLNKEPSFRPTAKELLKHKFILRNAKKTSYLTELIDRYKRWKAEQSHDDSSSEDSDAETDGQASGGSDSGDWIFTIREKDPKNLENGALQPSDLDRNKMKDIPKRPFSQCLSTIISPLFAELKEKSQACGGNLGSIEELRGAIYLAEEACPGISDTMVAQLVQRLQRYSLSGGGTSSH
UniProt Q9UQB9: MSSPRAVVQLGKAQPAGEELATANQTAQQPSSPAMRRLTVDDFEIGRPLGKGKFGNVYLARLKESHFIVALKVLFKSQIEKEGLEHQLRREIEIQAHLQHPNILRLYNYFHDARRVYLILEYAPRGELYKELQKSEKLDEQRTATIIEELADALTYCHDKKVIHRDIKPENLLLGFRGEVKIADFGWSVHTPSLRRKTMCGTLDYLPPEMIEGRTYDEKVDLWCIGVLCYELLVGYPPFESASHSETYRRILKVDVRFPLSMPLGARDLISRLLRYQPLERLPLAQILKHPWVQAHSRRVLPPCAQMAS
UniProt Q00535, whole entry, looked up: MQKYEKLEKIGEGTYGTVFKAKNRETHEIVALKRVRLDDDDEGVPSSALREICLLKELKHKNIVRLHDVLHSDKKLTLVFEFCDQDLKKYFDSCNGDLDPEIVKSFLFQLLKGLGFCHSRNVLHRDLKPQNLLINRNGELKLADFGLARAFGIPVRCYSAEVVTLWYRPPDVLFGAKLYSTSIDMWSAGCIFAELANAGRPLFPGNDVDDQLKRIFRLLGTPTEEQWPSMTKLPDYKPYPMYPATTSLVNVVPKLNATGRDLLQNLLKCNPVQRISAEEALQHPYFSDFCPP

Target	number of time points [1]	number of time points [2]	number of time points [3]	number of time points (HDACs/mTOR Inhibitor 1)	number of time points (Quercitrin)	number of time points [4]	number of time points (Fenebrutinib)	number of time points [5]	number of time points [6]	number of time points ((-)-Zuonin A)
RAF1 (UniProt P04049)	0	0	0	0	0	0	0	–	–	–
INSRR (UniProt P14616)	0	0	0	0	0	0	0	–	–	–
CAMK2A (UniProt Q9UQM7)	0	0	0	0	0	0	0	–	–	–
ARAF (UniProt P10398)	0	0	0	0	0	0	0	–	–	–
MAPKAPK2 (UniProt P49137)	0	0	0	0	0	0	0	–	–	–
PDK1 (UniProt Q15118)	0	0	0	1	0	0	0	–	–	–
BTK (UniProt Q06187)	0	0	0	0	0	0	0	–	–	–
PIK4CA (UniProt P42356)	0	0	0	0	0	0	0	–	–	–
BRAF (UniProt P15056)	0	0	0	0	0	0	0	–	–	–
MAPK1 (UniProt P28482)	0	0	0	0	0	0	0	–	–	–
PTK2B (UniProt Q14289)	0	0	0	0	0	0	0	–	–	–
BRAF_V600E	0	0	0	0	0	–	0	0	4	0
STK38 (UniProt Q15208)	0	0	0	0	0	0	0	–	–	–
ULK3 (UniProt Q6PHR2)	0	0	0	0	0	0	0	–	–	–
GSK3A (UniProt P49840)	0	0	0	1	0	0	0	–	–	–
PDGFRB (UniProt P09619)	0	0	0	0	0	0	0	–	–	–
HER2 (UniProt P04626)	0	0	0	0	0	0	0	–	–	–
SYK (UniProt P43405)	0	0	0	0	0	0	0	–	–	–
PBK (UniProt Q96KB5)	0	0	0	0	0	0	0	–	–	–
LYN (UniProt P07948)	0	0	0	0	0	0	0	–	–	–
NTRK2 (UniProt Q16620)	0	0	0	0	0	0	0	–	–	–
MAP2K2 (UniProt P36507)	0	0	0	1	0	0	0	–	–	–
DYRK1B (UniProt Q9Y463)	0	0	0	0	0	0	0	–	–	–
BMX (UniProt P51813)	0	0	0	0	0	0	–	–	–	–

Target	number of time points [1]	number of time points [2]	number of time points [3]	number of time points (HDACs/mTOR Inhibitor 1)	number of time points (Quercitrin)	number of time points [4]	number of time points (Fenebrutinib)	number of time points [5]	number of time points [6]	number of time points ((-)-Zuonin A)
PIK4CB (UniProt Q9UBF8)	0	0	0	0	0	0	0	–	–	–
RIPK1 (UniProt Q13546)	0	0	0	0	0	0	0	–	–	–
MAPK4 (UniProt P31152)	0	0	0	0	0	0	0	–	–	–
ERBB4_R711C (clone: ERBB4_mut) (UniProt Q15303)	0	0	0	0	0	2	0	–	–	–
YES1 (UniProt P07947)	0	0	0	0	0	0	0	–	–	–
RAF1_S257L (clone: RAF1_mut) (UniProt P04049)	0	0	0	0	0	0	0	–	–	–
CSK (UniProt P41240)	0	0	0	0	0	0	0	–	–	–
FGR (UniProt P09769)	0	0	0	1	0	0	0	–	–	–
RPS6KA1 (UniProt Q15418)	0	0	0	0	0	0	0	–	–	–
RIOK1 (UniProt Q9BRS2)	0	0	0	0	0	0	0	–	–	–
PLK1 (UniProt P53350)	0	0	0	1	0	0	0	–	–	–
LIMK1 (UniProt P53667)	0	0	0	0	0	4	0	–	–	–
CHEK2 (UniProt O96017)	0	0	0	0	0	0	0	–	–	–
CDK3 (UniProt Q00526)	0	0	0	0	0	0	0	–	–	–
PRKCA (UniProt P17252)	0	0	0	0	0	0	0	–	–	–
ZAP70 (UniProt P43403)	0	0	0	0	0	0	0	–	–	–
MAP4K2 (UniProt Q12851)	0	0	0	0	0	0	0	–	–	–
LIMK2 (UniProt P53671)	0	0	0	1	0	0	0	–	–	–
ERN1 (UniProt O75460)	0	0	0	0	0	0	0	–	–	–
DYRK2 (UniProt Q92630)	0	0	0	0	0	0	0	–	–	–
PDPK1 (UniProt O15530)	0	0	0	0	0	0	0	–	–	–
ABL1 (UniProt P00519)	0	0	0	0	0	4	0	–	–	–
IRAK3 (UniProt Q9Y616)	2	0	0	0	0	0	0	–	–	–
SPHK1 (UniProt Q9NYA1)	0	0	0	3	0	0	0	–	–	–

At a glance, part of the list above.
Target	number of time points [1]	number of time points [2]	number of time points [3]	number of time points (HDACs/mTOR Inhibitor 1)	number of time points (Quercitrin)	number of time points [4]	number of time points (Fenebrutinib)	number of time points [5]	number of time points [6]	number of time points ((-)-Zuonin A)
LIMK2 (UniProt P53671)	0	0	0	1	0	0	0	–	–	–
ERN1 (UniProt O75460)	0	0	0	0	0	0	0	–	–	–
DYRK2 (UniProt Q92630)	0	0	0	0	0	0	0	–	–	–
PDPK1 (UniProt O15530)	0	0	0	0	0	0	0	–	–	–

Later entries.

Target	number of time points [1]	number of time points [2]	number of time points [3]	number of time points (HDACs/mTOR Inhibitor 1)	number of time points (Quercitrin)	number of time points [4]	number of time points (Fenebrutinib)	number of time points [5]	number of time points [6]	number of time points ((-)-Zuonin A)
CDK2 (UniProt P24941)	0	0	0	0	0	0	0	–	–	–
CSNK1A1 (UniProt P48729)	0	0	0	0	0	0	0	–	–	–
CAMK2G (UniProt Q13555)	0	0	0	0	0	0	0	–	–	–
PAK4 (UniProt O96013)	0	0	0	0	0	0	0	–	–	–
PTK2 (UniProt Q05397)	0	0	0	0	0	0	0	–	–	–
CDK6 (UniProt Q00534)	0	0	0	1	0	0	0	–	–	–
PRKAA1 (UniProt Q13131)	0	0	0	0	0	0	0	–	–	–
AKT1 (UniProt P31749)	0	0	0	0	0	0	0	–	–	–
RIPK2 (UniProt O43353)	0	0	0	0	0	0	0	–	–	–
STK24 (UniProt Q9Y6E0)	0	0	0	0	0	0	0	–	–	–
FYN (UniProt P06241)	0	0	0	0	0	0	0	–	–	–
ERBB3 (UniProt P21860)	0	0	0	0	0	0	0	–	–	–
MKNK1 (UniProt Q9BUB5)	0	0	0	0	0	0	0	–	–	–
AURKB (UniProt Q96GD4)	0	0	0	0	0	0	0	–	–	–
TEC (UniProt P42680)	0	0	0	0	0	0	0	–	–	–
NTRK3 (UniProt Q16288)	0	0	0	0	0	–	0	–	–	–
EGFR_G719S_T790M (UniProt P00533)	0	–	–	0	0	0	0	–	–	–
EGFR (UniProt P00533)	0	–	–	0	0	0	0	–	–	–
JAK1 (UniProt P23458)	0	0	0	0	0	0	0	–	–	–
ALK (UniProt Q9UM73)	0	0	0	0	0	–	0	–	–	–
EGFR_L861Q (UniProt P00533)	0	–	–	0	0	0	0	–	–	–
EPHA2 (UniProt P29317)	0	0	0	0	0	–	0	–	–	–
CDK10 (UniProt Q15131)	0	0	0	0	0	0	0	–	–	–
EGFR_G719S (UniProt P00533)	0	–	–	0	0	0	0	–	–	–

Target	number of time points [1]	number of time points [2]	number of time points [3]	number of time points (HDACs/mTOR Inhibitor 1)	number of time points (Quercitrin)	number of time points [4]	number of time points (Fenebrutinib)	number of time points [5]	number of time points [6]	number of time points ((-)-Zuonin A)
AURKA (UniProt O14965)	0	0	0	–	0	0	0	–	–	–
FGFR2 (UniProt P21802)	0	0	0	0	0	–	0	–	–	–
AURKC (UniProt Q9UQB9)	0	0	0	0	–	0	0	–	–	–
ZAK (UniProt Q9NYL2)	–	0	–	0	0	0	0	–	–	–
CSNK1D (UniProt P48730)	0	–	0	0	0	0	0	–	–	–
MAP2K1 (UniProt Q02750)	0	0	0	0	0	0	0	–	–	–
RET_M918T (clone: RET_mut) (UniProt P07949)	–	0	0	0	0	–	0	–	–	–
LCK (UniProt P06239)	0	0	0	0	0	–	0	–	–	–
EGFR_L718V (UniProt P00533)	0	–	–	0	0	0	0	–	–	–
FLT3 (UniProt P36888)	0	0	0	0	0	–	0	–	–	–
RET (UniProt P07949)	–	0	0	0	0	–	0	–	–	–
CSF1R (UniProt P07333)	0	0	0	0	0	–	0	–	–	–
EGFR_L858R (UniProt P00533)	0	–	–	0	0	0	0	–	–	–
DDR1 (UniProt Q08345)	0	0	0	0	0	–	0	–	–	–
FGFR1 (UniProt P11362)	0	0	0	0	0	–	0	–	–	–
ROR2 (UniProt Q01974)	0	0	0	0	0	0	0	–	–	–
EGFR_T790M (UniProt P00533)	0	–	–	0	0	0	0	–	–	–
BLK (UniProt P51451)	–	–	–	0	0	0	0	–	–	–
LMTK2 (UniProt Q8IWU2)	0	0	0	0	0	0	0	–	–	–
TYK2 (UniProt P29597)	0	0	0	0	0	1	0	–	–	–
FGFR3 (UniProt P22607)	0	0	0	0	0	–	0	–	–	–
SRC (UniProt P12931)	0	0	0	0	0	–	0	–	–	–
CDK5 (UniProt Q00535)	–	0	–	1	0	0	0	–	–	–

Reference: the supplement of paper PMC12823440, “Inhibitors supercharge kinase turnover through native proteolytic circuits” (Nature, 2025)
